{"sequences": {"note": "Protein sequences, listed by entry. Tags and fused reporters are not part of them.", "UniProt Q15154": "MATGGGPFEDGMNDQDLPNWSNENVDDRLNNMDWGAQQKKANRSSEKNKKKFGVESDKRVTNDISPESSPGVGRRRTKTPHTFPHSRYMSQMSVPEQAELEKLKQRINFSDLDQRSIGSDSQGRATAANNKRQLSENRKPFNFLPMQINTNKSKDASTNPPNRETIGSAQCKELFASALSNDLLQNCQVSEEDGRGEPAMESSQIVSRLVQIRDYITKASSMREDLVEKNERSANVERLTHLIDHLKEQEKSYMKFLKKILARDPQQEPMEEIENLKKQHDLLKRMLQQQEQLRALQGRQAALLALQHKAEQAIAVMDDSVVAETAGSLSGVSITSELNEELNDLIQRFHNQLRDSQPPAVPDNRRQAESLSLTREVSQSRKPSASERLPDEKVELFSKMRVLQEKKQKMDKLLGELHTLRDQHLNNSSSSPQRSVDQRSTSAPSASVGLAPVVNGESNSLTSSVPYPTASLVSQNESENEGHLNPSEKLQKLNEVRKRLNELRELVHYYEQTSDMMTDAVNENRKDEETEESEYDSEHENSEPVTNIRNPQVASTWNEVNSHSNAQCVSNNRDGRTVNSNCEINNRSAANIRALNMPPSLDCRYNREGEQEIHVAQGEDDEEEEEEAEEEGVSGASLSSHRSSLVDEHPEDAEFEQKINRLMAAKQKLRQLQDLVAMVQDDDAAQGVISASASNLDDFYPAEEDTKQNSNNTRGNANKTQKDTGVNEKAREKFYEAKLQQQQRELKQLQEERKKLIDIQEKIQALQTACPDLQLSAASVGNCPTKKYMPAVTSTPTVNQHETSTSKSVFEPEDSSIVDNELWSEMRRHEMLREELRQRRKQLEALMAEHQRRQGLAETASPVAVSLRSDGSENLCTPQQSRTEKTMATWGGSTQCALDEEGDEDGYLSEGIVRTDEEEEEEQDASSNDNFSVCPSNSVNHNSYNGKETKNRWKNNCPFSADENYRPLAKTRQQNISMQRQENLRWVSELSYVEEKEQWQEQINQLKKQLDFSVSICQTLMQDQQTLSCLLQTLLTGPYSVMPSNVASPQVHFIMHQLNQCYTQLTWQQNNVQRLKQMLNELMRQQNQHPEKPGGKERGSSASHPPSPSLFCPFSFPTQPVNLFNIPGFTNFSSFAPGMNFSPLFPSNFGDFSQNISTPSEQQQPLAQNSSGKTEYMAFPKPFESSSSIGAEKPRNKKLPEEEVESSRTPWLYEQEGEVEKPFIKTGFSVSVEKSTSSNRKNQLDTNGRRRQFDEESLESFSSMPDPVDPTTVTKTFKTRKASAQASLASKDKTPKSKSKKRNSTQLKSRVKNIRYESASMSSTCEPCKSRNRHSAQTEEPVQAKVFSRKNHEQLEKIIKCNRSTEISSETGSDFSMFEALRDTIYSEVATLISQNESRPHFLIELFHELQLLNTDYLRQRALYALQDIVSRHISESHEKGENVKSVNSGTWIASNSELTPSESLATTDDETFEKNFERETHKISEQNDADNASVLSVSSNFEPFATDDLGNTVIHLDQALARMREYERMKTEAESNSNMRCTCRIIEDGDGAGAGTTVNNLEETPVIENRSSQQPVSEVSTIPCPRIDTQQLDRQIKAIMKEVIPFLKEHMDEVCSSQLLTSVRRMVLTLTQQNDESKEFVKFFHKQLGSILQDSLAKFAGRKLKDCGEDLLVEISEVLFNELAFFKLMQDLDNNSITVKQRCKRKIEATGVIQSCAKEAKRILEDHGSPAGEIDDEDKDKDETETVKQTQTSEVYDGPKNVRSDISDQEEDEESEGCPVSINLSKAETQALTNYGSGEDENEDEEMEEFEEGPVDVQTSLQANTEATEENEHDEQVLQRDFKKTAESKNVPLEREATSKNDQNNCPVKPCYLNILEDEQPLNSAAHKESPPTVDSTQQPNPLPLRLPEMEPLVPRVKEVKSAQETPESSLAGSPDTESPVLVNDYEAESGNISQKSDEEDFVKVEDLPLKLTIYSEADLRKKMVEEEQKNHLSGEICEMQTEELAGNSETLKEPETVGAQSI"}, "source": "paper PMC7332983", "molecular_target": "T1, 3xFLAG-tagged full-length trichoplein (TCHP), FLAG at the N-terminus (human) (UniProt Q9BT92)", "T1 sequence": "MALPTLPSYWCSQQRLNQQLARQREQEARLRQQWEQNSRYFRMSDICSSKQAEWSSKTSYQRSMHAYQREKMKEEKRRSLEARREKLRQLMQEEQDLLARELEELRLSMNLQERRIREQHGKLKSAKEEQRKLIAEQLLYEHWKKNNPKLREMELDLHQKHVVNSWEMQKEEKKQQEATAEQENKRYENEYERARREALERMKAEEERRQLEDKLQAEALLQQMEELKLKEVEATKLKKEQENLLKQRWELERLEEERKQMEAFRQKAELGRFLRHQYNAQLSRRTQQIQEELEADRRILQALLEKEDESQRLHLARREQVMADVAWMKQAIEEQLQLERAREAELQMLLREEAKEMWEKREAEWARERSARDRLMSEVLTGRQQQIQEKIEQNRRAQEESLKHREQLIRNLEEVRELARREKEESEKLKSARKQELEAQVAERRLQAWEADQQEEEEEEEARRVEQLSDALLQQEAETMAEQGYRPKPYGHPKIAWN", "test": "affinity purification with mass spectrometry; anti-FLAG co-immunoprecipitation from HEK293 cells with FLAG-tagged TCHP as bait, against a control experiment; gel bands digested with trypsin, nano-ESI-HPLC-MS/MS, label-free quantitation", "note": "These are yes or no findings as the source states them, for the method shown. In cells and extracts the contact can be indirect. A yes stands for co-enrichment or nearness to the bait. Other partners may have been found. Sequences can lack the tags named with a protein.", "data": [{"substance": "PCM1, centriolar satellite protein, endogenous in HEK293 cells (from UniProt Q15154 1-2024)", "values": [{"measurement": "binding", "value": "binds"}]}]}
